At least one compound was matched to its structure with a doubt left.
Tests used:
[1] = tested on: L. minor strains 8744 and 8627; assay: Callus induction from Lemna minor fronds, auxin and cytokinin type and concentration; type: cell-based; settings: MS medium, 6 weeks; for concentrations at which callus induction was observed: strain 8627, cytokinin experiment
Description: In the auxin type and concentration experiment, four auxins: 2,4-D, NAA, IBA and dicamba were tested, each at four concentrations: 2, 5, 10 and 20 μM, for their ability to induce callus formation from L. minor strains 8744 and 8627. The basal medium used was MS and media and experimental protocol was basically that followed in Example 10. Fronds used in this experiment were grown for 2 weeks prior to plating on callus induction medium under 3 different culture conditions: 1) SH medium without plant growth regulators, 2) F medium with 24 μM 2,4-D and 2 μM 2-iP, and 3) SH medium with 24 μM 2,4-D and 2 μM 2-iP. Fronds were separated, the roots cut off and then plated on induction medium. The fronds were incubated under conditions given in Example 8 for 6 weeks at which time cultures were evaluated for the presence or absence of callus induction, the degree to which the callus proliferated, and the basic morphology of the callus present.
In the cytokinin type and concentration experiment, four cytokinins: BA, kinetin, 2-iP, and thidiazuron were tested, each at five concentrations: 0.05, 0.1, 0.5, 1 and 5 μM, for their ability to induce callus formation from L. minor strains 8744 and 8627. The basal medium used was MS and the media and experimental protocol were basically as described in Example 11. Fronds used in this experiment were grown for 2 weeks prior to plating on callus induction medium under 3 different culture conditions: 1) SH medium without plant growth regulators, 2) F medium with 24 μM 2,4-D and 2 μM 2-iP, and 3) SH medium with 24 μM 2,4-D and 2 μM 2-iP. Fronds were separated, the roots cut off and then plated on induction medium. The fronds were incubated under conditions given in Example 8 for 6 weeks at which time cultures were evaluated for the presence or absence of callus induction, the degree to which the callus proliferated, and the basic morphology of the callus.

Lemna gibba G3 = assay: Callus induction from Lemna gibba G3 fronds on solid medium with plant growth regulators; type: cell-based; settings: auxin with 1 μM BA, five weeks
Description: Duckweed fronds were grown in liquid Hoagland's medium (Hoagland and Snyder, Proc. Amer. Soc. Hort. Sci. 30, 288 (1933)) containing 3% sucrose for two weeks at 23° C. under a 16 hr light/8 hr dark photoperiod with light intensity of approximately 40 μmol/m^2·sec prior to experimentation. For callus induction, eighteen, 100 ml portions of Murashige and Skoog basal medium (Murashige and Skoog, Physiol. Plant. 15, 473 (1962)) containing 3% sucrose, 0.15% Gelrite and 0.4% Difco Bacto-agar were prepared with 2,4-D concentrations of 10, 20 and 50 μM and BA concentrations of 0, 0.01, 0.1, 1.0, 2.0, and 10.0 μM. All media were pH adjusted to 5.8, autoclaved at 121° C. for 20 minutes, cooled, and each 100 ml was poured into 4, 100 mm×15 mm petri dishes.
A three 2,4-D concentrations×six BA concentrations, full-factorial experimental design (18 treatments in total) with four replications, with one petri dish per replication and 5 fronds per petri dish was used. For callus induction, 5 individual duckweed fronds were placed abaxial side down on each plate of medium. The 72 plates were incubated at 23° C., for 27 days under a 16 hr light/8 hr dark photoperiod with light intensity of approximately 40 μmol/m^2·sec. After 27 days the duckweed tissue was transferred to fresh media of the same type and incubation was continued another 35 days under the same temperature and light culturing conditions. […]

CC(C)=CCNc1ncnc2nc[nH]c12 [2-iP]
concentrations at which callus induction was observed [1]: 0.1 or 0.5 μM | concentrations giving prolific callus induction ([1]; strain 8744, cytokinin experiment, fronds pre-grown on F-medium): 0.5 or 1 μM

c1ccc(CNc2ncnc3nc[nH]c23)cc1 [BA, benzyladenine]
concentrations at which callus induction was observed [1]: 0.5 and at 1 μM

O=C(O)Cc1cccc2ccccc12 [NAA, naphthaleneacetic acid]
compact Type I callus induction on MS medium (Lemna gibba G3): some degree of callus induction | callus induction ([1]; inducing auxin at 2, 5, 10, 20 μM, strains 8744 and 8627): not observed
